Substitutions are numbered along the chain they refer to. No constants are given. Whether binding was seen depends on the method and setting. Some entries that bind do so weakly or less than the wild type. One block for each binder: values may come before it.
What was measured:
mouse doppel (mouse) [1] = target: mouse doppel (mouse) (UniProt Q9QUG3); experiment: screening ELISA on mouse doppel; western blot of TEC lysates
mouse doppel (mouse) [2] = target: mouse doppel (mouse) (UniProt Q9QUG3); experiment: epitope mapping experiment
mouse doppel (mouse) [3] = target: mouse doppel (mouse) (UniProt Q9QUG3); experiment: peptide microarray of overlapping 15-residue peptides of mouse doppel (sequences on the x axis), antibody at 1 and 10 µg/ml, fluorescence intensity [a.u.]

By UniProt entry, the sequences of proteins in these tests, tags left out. Where a name states a change or a piece, a line headed by the entry shows the natural chain unless it says otherwise.
UniProt Q9QUG3: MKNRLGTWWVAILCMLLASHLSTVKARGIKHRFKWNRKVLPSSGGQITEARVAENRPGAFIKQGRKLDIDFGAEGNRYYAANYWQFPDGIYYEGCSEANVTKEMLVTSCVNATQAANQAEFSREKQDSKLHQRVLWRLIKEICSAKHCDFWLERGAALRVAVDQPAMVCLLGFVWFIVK

B2: anti-doppel monoclonal antibody produced by hybridoma cell line clone 6F11 (antibody, V domains shown)
VH: QVQLQQSGTELVRPGSSVKISCKASGYAFSSHWMNWVKQRPGQGLEWIGQIYPRNGDTNYNGKFKGKATLTADKSSSTAYMQLSSLTSEDSAVYFCSRSTTIVTTGAYWGQGTLVTVSA
VL: DIQMTQSPSSLSASLGERVSLTCRASQEISGYLSWLQQKPDGTIKRLIYAASILDSGVPKRFSGSRSGSDYSLTISSLESEDFADYYCLQYASYPFMFGAGTKLELKR
binding (mouse doppel (mouse) [1]): binds

B4: anti-doppel monoclonal antibody produced by hybridoma cell line clone 1C8 (antibody, V domains shown)
VH: EVQLVESGGDLVKPGGSLKLSCAASGFTFSNYGMSWVRQTPDKRLEWVATISSGGRYIYYPDSVKGRFTVSRDNAKNTLYLQMSSLKSEDTAMYYCARDSSDYGFAYWGQGTLVTVSA
VL: DVLMTQIPLSLPVSLGDQASISCRSSQSIVHSNGNTYLEWYLQKPGQSPKLLIYKVSNRFSGVPDRFSGSGSGTDFTLKISRVEAEDLGVYYCFQGSHVPWTFGGGTKLEIKR
binding (mouse doppel (mouse) [1]): binds

Continued, values first:

binding (mouse doppel (mouse) [1]): binds
binding (mouse doppel (mouse) [2]): binds
binding (mouse doppel (mouse) [3]): binds
B1: anti-doppel monoclonal antibody produced by hybridoma cell line clone 5C7 (antibody, V domains shown)
VH: B2 VH
VL: B2 VL

binding (mouse doppel (mouse) [1]): binds
binding (mouse doppel (mouse) [2]): binds
binding (mouse doppel (mouse) [3]): binds
B3: anti-doppel monoclonal antibody produced by hybridoma cell line clone 4D6 (antibody, V domains shown)
VH: QVQLHQSGSELARPGASVKLSCKASGYTFTNYWMQWVKQRPGQGLEWIGAIYPGDGNTRYSQKFKGKATLTADKSSSTAYMQLSSLASEDSAVYYCARRDYGSSYWYFDVWGAGTTVTVSS
VL: B4 VL with I7T, W101L, G105A, I111L
